From patent publication US11999957B2, “Method for enhancing vanillin resistance of Saccharomyces cerevisiae by knocking out SNG1 gene” (QILU UNIVERSITY OF TECHNOLOGY, priority 2020, dated 2024)

Tested on: sng1Δ mutant
Assay: Vanillin reduction/consumption during shake-flask fermentation (HPLC of extracellular vanillin)
Format: cell-based, Saccharomyces cerevisiae

For COc1cc(C=O)ccc1O [vanillin], the “specific consumption (reduction) rate of vanillin” value (sng1Δ mutant, SC medium containing 6 mmol/L of vanillin, vanillin reduced to vanillyl alcohol) was 0.052 g/g/h and the “improvement of specific reduction/consumption rate of vanillin of sng1Δ mutant compared to the control strain” value (under vanillin stress (6 mmol/L), sng1Δ mutant vs BY4741) was 48% and 52%.

Values joined by “and” are separate entries in the source; they are usually repeats but may differ in a detail not shown here. Equal values may be shown once.
